Results: patent publication US12545900B2, “CGAS/DNCV-like nucleotidyltransferases and uses thereof” (Dana-Farber Cancer Institute, Inc., priority 2018, dated 2026)

B1: Ec-CdnD02: CD-NTase from Enterobacter cloacae, SEQ ID NO: 112 (protein, listed as Enterobacter cloacae)
chain: MELQPQFNEFLANIRPTDTQKEDWKSGARTLRERLKNFEPLKEIVVSTFLQGSIRRSTAIRPLGDKRPDVDIVVVTNLDHTRMSPTDAMDLFIPFLEKYYPGKWETQGRSFGITLSYVELDLVITAIPESGAEKSHLEQLYKSESVLTVNSLEEQTDWRLNKSWTPNTGWLSESNSAQVEDAPASEWKAHPLVLPDREKNEWGRTHPLAQIRWTAEKNRLCNGHYINLVRAVKWWRQQNSEDLPKYPKGYPLEHLIGNALDNGTTSMAQGLVQLMDTFLSRWAAIYNQKSKPWLSDHGVAEHDVMARLTAEDFCSFYEGIASAAEIARNALASEEPQESAQLWRQLFGSKFPLPGPQGGDRNGGFTTPSKPAEPQKTGRFA
B2: CdnE: E. coli cGAS/DncV-like nucleotidyltransferase, SEQ ID NO: 166 (protein, listed as Escherichia coli)
chain: MGIPESQLDTWSHQGSIAQSASTYSIIKNALESANTKYHGKNFKVFLQGSYGNDTNIYAESDVDVVICLDDVYYSDLTQLSPEDKDAYDRAFVPATYSYTQFKQDVLEALTERFGSDVKVGDKAIVVAANGSRRKADVIASMQFRRYWKFKGHYDSQYDEGICFFNGAGERIANYPKQHSENLTLKHQASNKWLKPMVRVLKNLRSKLIADGKLKSGLAPSYYLEGLLYNVPNEKFGTSYADCFVNAMNWIQTEADKDKLVCANEQYYLLWEGTHTSWEKADAEAFIDAAIKMWNEW

Test: Second messenger synthesis assay ([α-32P] NTPs, TLC, MS/NMR of products)
Assay type: biochemical
Protocol: Recombinant, candidate nucleotidyltransferase reactions combined 4 μL of 5× reaction buffer (250 mM CAPSO pH 9.4, […], 25 mM Mg (OAc) 2, 5 mM DTT), 2 μL of 10× NTPs, 1 uL [α-^32P] NTPs (˜1 uCi), 1 μL of candidate enzyme in storage buffer (˜20 μM), and a remaining volume of nuclease free water. The final reactions (50 mM CAPSO pH 9.4, 50 mM KCl, 5 mM Mg (OAc) 2, 1 mM DTT, ≤5% glycerol, 25-250 μM individual NTPs, trace amounts of [(-^32P] NTP, 1 μM enzyme) were started with addition of enzyme. Where indicated, pH was altered by replacing CAPSO buffer with appropriate buffer from “StockOptions pH Buffer Kit” (Hampton Research). When appropriate, Mg^2+ was replaced with an equimolar concentration of Mn^2+(MnCl2). cGAS reactions were always carried out with Tris at pH 7.5 and supplemented with 1 μM ISD45 dsDNA (Stetson & Medzhitov. (2006) Immunity 24:93-103). Reactions were carried out with 25 μM of each indicated NTP for FIGS. 1B, 3D, 8B, 8C, and 8D and for FIGS. 2C, 2G-2I, 5B, 5C, 10A-10D, 11A, 11B, and 13D. Reactions in all other figures were carried out with 250 μM NTP. The NTP/[α-^32P] NTPs in FIG. 1B are cGAS (ATP, GTP/[α-^32P] GTP), DncV (ATP, GTP/[α-^32P] ATP), DisA (ATP/[α-^32P] ATP), WspR (GTP/[xx-^32P] GTP), and CdnE (NTP/[{-^32P] NTP). P1 nuclease treated reactions in FIG. 1C and FIG. 11B are cGAS (ATP, GTP/[α-^32P] ATP), DncV (ATP, GTP/[α-^32P] GTP), CdnE (ATP, UTP/[<- ^32P] ATP), and Lp-CdnE02 (CTP, UTP/ [α-^32P] UTP) . Where indicated, nonhydrolyzable nucleotides [Ap (c) pp, Gp (c) pp, Cp (c) pp, or Up (n) pp (Jena)] were used at 25 μM.
Reactions were incubated for 2 h at 37° C. prior to analysis unless otherwise stated. Reactions were stopped by addition of 5 U of alkaline phosphatase (New England Biolabs) which removed triphosphates on remaining NTPs and converted the remaining nucleotide [α-^32P] to ^32Pi and allowed visualization of cyclic nucleotides. After a >20 min incubation, […] (PEI-cellulose) or 1 uL (silica) of the reaction was spotted 1.5 cm from the bottom of the TLC plate, spaced 0.8 cm apart. […]

Molecule | [α-32P] incorporated into the major product from ATP (silica TLC) [%] | [α-32P] incorporated into the major product from GTP (silica TLC) [%] | reaction buffer pH of optimal activity (pH titration in steps of 0.2 pH units)
B1 | ~70 | ~30 | –
B2 | – | – | ~9.4
